System: hESCs and hESC-derived NSCs
Assay: Comparative ATP screening on hESCs and hESC-derived NSCs (ratio ESC/NSC or NSC/ESC)

**Q.** With `Cc1cc(/C=C/c2ccc3cc(N(C)C)ccc3[n+]2C)c(C)n1-c1ccccc1` [Pyrvinium Pamoate] as the compound, how does the ESC/NSC read?
**A.** Its ESC/NSC is 85.91.

From patent publication US20120244567A1, “HUMAN EMBRYONIC STEM CELLS FOR HIGH THROUGHOUT DRUG SCREENING” (BUCK INSTITUTE FOR RESEARCH ON AGING, priority 2009, published 2012)
